Patent US8524898B2, “Proton acceptor iminium/carbocation-type coupling agents” (Luxembourg Bio Technologies Ltd., priority 2007, dated 2013)
Where “and” joins values, the source holds several entries; their conditions need not be identical. Equal entries are not always repeated.

Experiments:
[1] = Solution synthesis of di-peptide Z-Phg-Pro-NH2 (coupling yield and Phg racemization); settings: Z-Phg-Pro-NH2 in DMF; for DL (%): racemization
[2] = Solution synthesis of tri-peptide Z-Phe-Val-Pro-NH2 (2+1; coupling yield and Val racemization); settings: Z-Phe-Val-Pro-NH2 in DMF; for LDL (%): racemization
[3] = Solid-phase synthesis of Tyr-Aib-Aib-Phe-Leu-NH2 (Aib-Aib coupling); settings: for Pentapeptide (%) / Tetrapeptide (%): percent of total crude product, solid phase, DIEA (2 equivalents)
[4] = Solid-phase synthesis of 15-mer (60-74) fragment of acyl carrier protein (ACP); settings: purity by reverse-phase HPLC; coupling 30 minutes, 3 equivalents reagent, 6 equivalents DIEA
[5] = base DIEA (2) (no preactivation)
[6] = base DIEA (2) (no preactivation), listed as drawing 151
[7] = base DIEA (2) (no preactivation), listed as drawing 158
[8] = base DIEA (2) (no preactivation), listed as drawing 155

## CN(C)C(N1CCOCC1)n1n[n+]([O-])c2cc(C(F)(F)F)ccc21 (stereo not drawn)
[1]; base DIEA (2)
  Yields (%): 84.1%
  DL (%): 0.6%

## CN(C)C(N1CCOCC1)n1n[n+]([O-])c2cc(Cl)ccc21 (stereo not drawn)
[1]; base DIEA (2)
  Yields (%): 84.5%
  DL (%): 1.5%

## N#CC(C#N)=NOC(N1CCOCC1)=[N+]1CCCC1
[1]; base DIEA (2)
  Yields (%): 90.2%
  DL (%): 0.35%

## 1((dimethylimino)(thiomorpholino)methyl)3-H- [1,2,3]triazolo[4,5-b]pyridine-1-3-olate hexafluorophosphate [HDTMA]
[1]; base DIEA (2)
  Yields (%): 83.0%
  DL (%): 2.1%

## 1-((dimethylimino)(morpholino)methyl)3-H-6-chlorobenzo[1,2,3]triazolo-1-ium-3-olate hexafluorophosphate [6-Cl-HDMB]
[2]; base DIEA (1)
  Yield (%): 79.9%
  LDL (%): 13.9%
[3]
  yield per a particular Aib-Aib coupling step: 98.7%
  Pentapeptide (%): 98.7%
  Tetrapeptide (%): 1.3%
[4]
  15-mer peptide (%): 62.9%

## 1-((dimethylimino)(morpholino)methyl)3-H-[1,2,3]triazolo[4,5-b]pyridine-1-3-olate hexafluorophosphate [HDMA]
[1]; base DIEA (1)
  Yields (%): 82.3%
  DL (%): 1.6%
[1]; base DIEA (2)
  Yields (%): 81.2%
  DL (%): 1.6%
[1]; base TMP (2)
  Yields (%): 80.3%
  DL (%): 3.9%
[2]; base DIEA (1)
  Yield (%): 87.4%
  LDL (%): 5.1%
[2]; base DIEA (2)
  Yield (%): 89.3%
  LDL (%): 10.5%
[2]; base TMP (1)
  Yield (%): 84.1%
  LDL (%): 3.8%
[2]; base TMP (2)
  Yield (%): 86.2%
  LDL (%): 3.7%
[3]
  yield per a particular Aib-Aib coupling step: 98%
  Pentapeptide (%): 98%
  Tetrapeptide (%): <1%
[4]
  15-mer peptide (%): 63.6%

## 1-((dimethylimino)(morpholino)methyl)3-H-benzo[1,2,3]triazolo-1-ium-3-olate Hexafluorophosphate [HDMB]
[1]; base DIEA (1)
  Yields (%): 82.3%
  DL (%): 3.1%
[1]; base DIEA (2)
  Yields (%): 80.8%
  DL (%): 3.8%
[1]; base TMP (2)
  Yields (%): 79.9%
  DL (%): 7.8%
[2]; base DIEA (1)
  Yield (%): 86.3%
  LDL (%): 11.5%
[2]; base DIEA (2)
  Yield (%): 88.7%
  LDL (%): 20.3%
[2]; base TMP (1)
  Yield (%): 80.1%
  LDL (%): 10.5%
[2]; base TMP (2)
  Yield (%): 87.1%
  LDL (%): 13.3%
[3]
  yield per a particular Aib-Aib coupling step: 89%
  Pentapeptide (%): 89%
  Tetrapeptide (%): 10%
[4]
  15-mer peptide (%): 61.6%

## CN(C)C(Cl)N1CCOCC1 (stereo not drawn) [DCMH, 4-((dimethylamino)chloromethylene)morpholin-4-iminium hexafluorophosphate]
[1]; [5]
  Yields (%): 81.9%
  DL (%): 6.9%

## CN(C)C(F)N1CCOCC1 (stereo not drawn) [DFMH, 4-((dimethylamino)fluoromethylene)morpholin-4-iminium hexafluorophosphate]
[1]; [5]
  Yields (%): 82.6%
  DL (%): 4.9%
[1]; [6]
  Yields (%): 82.6%
  DL (%): 4.9%

## CN(C)C(N1CCOCC1)n1n[n+]([O-])c2ncccc21 (stereo not drawn) [HDMA, 1-((dimethylimino)(morpholino)methyl)3-H-[1,2,3]triazolo[4,5-b]pyridine-1-3-olate hexafluorophosphate]
[1]; base DIEA (2)
  Yields (%): 81.2%
  DL (%): 1.6%

## CCOC(=O)/C(C#N)=N/OC(N1CCOCC1)=[N+](C)C [HDMOCC, 1-[(1-(Cyano-2-ethoxy-2-oxoethylideneaminooxy)-dimethylamino-morpholinomethylene)]methanaminium hexafluorophosphate]
[1]; base DIEA (2)
  Yields (%): 88.2%
  DL (%): 0.12%
[1]; base TMP (2)
  Yields (%): 91.0%
  DL (%): 0.90%

## CCOC(=O)C(C#N)=NOC(N1CCOCC1)=[N+](C)C [HDMOCC, 1-[(1-(Cyano-2-ethoxy-2-oxoethylideneaminooxy)-dimethylamino-morpholinomethylene)]methanaminium hexafluorophosphate]
[1]; base DIEA (2)
  Yields (%): 88.2%
  DL (%): 0.12%
[1]; base TMP (2)
  Yields (%): 91.0%
  DL (%): 0.90%
[2]; base DIEA (2)
  Yield (%): 91.3%
  LDL (%): 19.3%
[2]; base TMP (1)
  Yield (%): 90.3%
  LDL (%): 3.5%
[2]; base TMP (2)
  Yield (%): 89.8% and 90.3%
  LDL (%): 8.0% and 7.0% and 3.5%
[4]
  15-mer peptide (%): 79.4%

## C[N+](C)=C(ON=C(C#N)C#N)N1CCOCC1 [HDMODC, 1-[(1-(dicyanomethyleneaminooxy)-dimethylamino-morpholinomethylene)]methanaminium hexafluorophosphate]
[1]; base DIEA (2)
  Yields (%): 90.1%
  DL (%): 0.40%

## CN(C)C(N1CCSCC1)=[N+]1N=[N+]([O-])c2ccccc21.F[P-](F)(F)(F)(F)F [HDTMB, 1((dimethylimino)(thiomorpholino)methyl)3-H-benzo[1,2,3]triazolo-1-ium-3-olate Hexafluorophosphate]
[1]; base DIEA (2)
  Yields (%): 81.3%
  DL (%): 3.5%

## CCOC(=O)C(C#N)=NOC(N(C)C)=[N+]1CCCC1 [HDmPyOCC, 1-[(1-(Cyano-2-ethoxy-2-oxoethylideneaminooxy)-dimethylamino-pyrrolodinomethylene)]methanaminium hexafluorophosphate]
[2]; base TMP (2)
  Yield (%): 88.0%
  LDL (%): 7.9%

## CCOC(=O)/C(C#N)=N/OC(N1CCOCC1)=[N+]1CCCC1 [HMPyOCC, 1-((1-cyano-2-ethoxy-2-oxoethylideneaminooxy)(morpholino)methylene) pyrrolidinium hexafluorophosphate]
[2]; base TMP (2)
  Yield (%): 91.0%
  LDL (%): 10.2%

## CN(C)C(F)N1CCOCC1 (stereo not drawn) [TCFH, reference compound]
[1]; [5]
  Yields (%): 80.0%
  DL (%): 29.9%
[1]; [7]
  Yields (%): 80.0%
  DL (%): 29.9%

## CN(C)C(F)N1CCOCC1 (stereo not drawn) [TFFH, Fluoro-N,N,N″,N″-tetramethylformamidinium hexafluorophosphate, reference compound]
[1]; [5]
  Yields (%): 80.1%
  DL (%): 7.1%
[1]; [8]
  Yields (%): 80.1%
  DL (%): 7.1%

## CCOC(=O)/C(C#N)=N/OC(N1CCOCC1)=[N+](C)C [drawing 161]
[1]; base TMP (1)
  Yields (%): 93.0%
  DL (%): 0.40%

## CCOC(=O)/C(C#N)=N/OC(N1CCOCC1)=[N+]1CCCC1 [drawing 162]
[1]; base DIEA (2)
  Yields (%): 89.8%
  DL (%): 0.32%
